Values from PubChem BioAssay AID1259425 (University of Nebraska Medical Center, 2018)
This is one part, drawn at random, of about 14,000 reagents. Not all columns of the deposit are shown. No sequences are given here. Not given: the time to read-out.

Purpose: 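Compare each knockdown with KSR1 silencing using changes in marker transcripts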 (primary screen)
System: HCT116 human colon cancer cells
Reagent: siRNA pool against human genes, 50 nM siRNA
Measurement: 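mRNA of six signature genes measured together by branched-DNA assay after 50 nM siRNA pool, blank removed, divided by geometric mean of two housekeeping genes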
Scale: BNIP3L mRNA: higher = more BNIP3L transcript after knockdown; NDRG1 mRNA: higher = more NDRG1 transcript after knockdown

| BNIP3L mRNA, set 1 | NDRG1 mRNA, set 1 | gene |
| --- | --- | --- |
| 0.124 | 0.317 | SCRN1 (secernin 1) |
| 0.0865 | 0.0471 | KCNMB4 |
| 0.235 | 0.353 | MUC2 (mucin 2, oligomeric mucus/gel-forming) |
| 0.259 | 0.212 | OR1A2 (olfactory receptor family 1 subfamily A member 2) |
| 0.245 | 0.452 | CREB3L3 (cAMP responsive element binding protein 3 like 3) |
| 0.224 | 0.195 | WDR54 (WD repeat domain 54) |
| 0.174 | 0.144 | PRMT8 (protein arginine methyltransferase 8) |
| 0.0855 | 0.19 | PRLR (prolactin receptor) |
| 0.0526 | 0.139 | ELP4 (elongator acetyltransferase complex subunit 4) |
| 0.0692 | 0.101 | SLC30A10 |
| 0.0858 | 0.0892 | GRHPR (glyoxylate and hydroxypyruvate reductase) |
| 0.127 | 0.244 | PTOV1 (PTOV1 extended AT-hook containing adaptor protein) |
| 0.082 | 0.0651 | HLA-DQB2 (major histocompatibility complex, class II, DQ beta 2) |
| 0.0503 | 0.174 | SEPTIN7 (septin 7) |
| 0.176 | 0.372 | STRN4 (striatin 4) |
| 0.14 | 0.377 | LENG1 (leukocyte receptor cluster member 1) |
| 0.136 | 0.27 | IKBKG |
| 0.126 | 0.152 | SV2B (synaptic vesicle glycoprotein 2B) |

Look-ups from the entries so far:
Result of PRMT8 (protein arginine methyltransferase 8) in “BNIP3L mRNA, set 1”: 0.174
OR1A2 (olfactory receptor family 1 subfamily A member 2), BNIP3L mRNA, set 1 = 0.259

More records:
| BNIP3L mRNA, set 1 | NDRG1 mRNA, set 1 | gene |
| --- | --- | --- |
| 0.319 | 0.364 | TRIM51 (tripartite motif-containing 51) |
| 0.0303 | 0.24 | MMD (monocyte to macrophage differentiation associated) |
| 0.125 | 0.0525 | PLSCR3 (phospholipid scramblase 3) |
| 0.118 | 0.114 | PIGU (phosphatidylinositol glycan anchor biosynthesis class U) |
| 0.129 | 0.111 | LRPAP1 (LDL receptor related protein associated protein 1) |
| 0.0839 | 0.114 | PCDHGC4 (protocadherin gamma subfamily C, 4) |
| 0.0669 | 0.0478 | PFKFB4 (6-phosphofructo-2-kinase/fructose-2,6-biphosphatase 4) |
| 0.123 | 0.0655 | LHX1 (LIM homeobox 1) |
| 0.0647 | 0.131 | SOWAHC (sosondowah ankyrin repeat domain family member C) |
| 0.461 | 0.633 | ATOSA (atos homolog A) |
| 0.09 | 0.237 | PPARD (peroxisome proliferator activated receptor delta) |
| 0.111 | 0.105 | PON1 (paraoxonase 1) |
| 0.216 | 0.584 | SOX3 (SRY-box transcription factor 3) |
| 0.078 | 0.176 | MAST4 |
| 0.068 | 0.0466 | ANAPC2 (anaphase promoting complex subunit 2) |
| 0.0681 | 0.0385 | MOGS (mannosyl-oligosaccharide glucosidase) |
